Results published in patent publication US20190137523A1 (Hoffmann-La Roche, published 2019).
No constants are given. Whether binding was seen depends on the method and setting. Some results given as binding are weak or reduced against the parent protein; the word gives no strength.

Assays:
[1] = target: T1, VEGF-A 121 (Peprotech), dimeric (human, UniProt P15692-9 27-147); assay: SPR (Biacore T200), consecutive injections. VEGF-A 121 is displayed by captured rH-4.6.1-IgG (Avastin) and saturated again with rH-4.6.1-IgG. Setup as printed: rH-4.6.1-IgG*VEGF-A*rH4.6.1*Ab1*Ab2
T1 construct: also called VEGF121
T1 sequence (looked up): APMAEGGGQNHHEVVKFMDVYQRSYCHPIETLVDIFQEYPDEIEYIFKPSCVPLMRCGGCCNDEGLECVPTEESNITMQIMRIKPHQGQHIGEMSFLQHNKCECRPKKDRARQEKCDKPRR
Protocol: The sample buffer was the system buffer supplemented with 1 mg/ml CMD (Carboxymethyldextran, Sigma #86524). The system operated at 25° C.

[2] = target: T1, VEGF-A 121 (Peprotech), dimeric; assay: Biacore T200, 75 nM injected onto VEGF-A 121 displayed by and saturated with rH-4.6.1-IgG
[3] = target: T1, VEGF-A 121 (Peprotech), dimeric; assay: Biacore T200 epitope binning on dimeric VEGF-A 121

Measured: binding

B1: 13.2.5-F(ab')2-Bi (antibody, V domains shown)
VH: DVRLQESGPDLVKPSQSLSLTCTVTGYSITRAYNWHWIRQFPGNKLEWMGYILYSGTTDYNPSLKSRISFTRDTSKNQLILQLDSVTTDDTGTYYCARAGYDGGMDYWGQGVSVTVSS
VL: DIQMTQSPASLSASVGETVTITCGASENIYGGLTWYQRRRGKSPQLLIYGASNLADGMSSRFTGSGSGRQFSLKISGVHPDDVATYYCQNVFTTPYTFGGGTRLEIKR
binds: all assays above
